Measured data: PubChem BioAssay AID686938 (Drosophila RNAi Screening Center, 2013)

- Test: 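Knock-downs reducing store-operated calcium influx in Drosophila cells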 (primary screen)
- Cell system: Drosophila S2R+ cells
- Knock-down reagent: long dsRNA against Drosophila genes, about 0.25 µg dsRNA per well, roughly 10,000 cells
- Duration: 5 days of knock-down before the calcium assay
- Conditions: thapsigargin (SERCA pump blocker) to empty calcium stores; entry signal taken 4 min after adding it
- Measured: 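Per-well fluo-4 fluorescence in two replicates, unnormalised, measured in resting cells and 4 min after store depletion by the SERCA blocker thapsigargin; ratio of the two present in few wells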
- Scale: calcium entry signal: higher = stronger calcium signal after store depletion; resting calcium signal: higher = higher resting calcium signal
- Active means: 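Called when the plate z-score of the entry-to-rest ratio, mean of duplicates, falls below −3; wells with low overall dye signal (Fmax z below −2) or more than five off-targets excluded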
- Calls: active = strongly reduced calcium entry; inactive = no strong reduction
In all, the deposit lists about 23,000 reagents; shown is a random part of those that have a named target and a result. Over the whole deposit, 75 (0.33%) got an active call. 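Raw plate signals without normalisation; calls rest on plate z-scores that were not deposited; ratio present for only 364 wells.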 Unmarked entries are inactive. Names joined by + are all predicted targets of the reagent. Not given: the dose of the treatment.

predicted target | amplicon | calcium entry signal, replicate 1 (fluorescence units) | calcium entry signal, replicate 2 (fluorescence units) | resting calcium signal, replicate 1 (fluorescence units) | resting calcium signal, replicate 2 (fluorescence units)
SPE | DRSC15135 | 4.54e7 | 4.11e7 | 2.06e7 | 1.91e7
prod | DRSC07667 | 2.56e7 | 1.79e7 | 1.20e7 | 1.00e7
CG17234 | DRSC00490 | 2.83e7 | 3.13e7 | 1.42e7 | 1.46e7
Snp | DRSC04524 | 5.70e7 | 5.50e7 | 2.70e7 | 2.28e7
Snp | DRSC21538 | 3.42e7 | 3.40e7 | 1.90e7 | 1.53e7
CG14857 | DRSC14981 | 3.33e7 | 4.85e7 | 1.64e7 | 7.11e7
Golgin84 | DRSC15269 | 3.74e7 | 5.50e7 | 1.96e7 | 2.06e7
CG43260 (retired record) | DRSC19313 | 2.93e7 | 4.01e7 | 1.50e7 | 1.84e7
CG7120 | DRSC08921 | 2.59e7 | 2.63e7 | 1.36e7 | 1.30e7
CG7120 | DRSC10773 | 2.05e7 | 3.05e7 | 1.04e7 | 1.32e7
CG8086 | DRSC03078 | 4.97e7 | – | 2.19e7 | –
CG8086 | DRSC03079 | 3.03e7 | 4.90e7 | 1.47e7 | 2.06e7
CG8925 | DRSC16455 | 3.74e7 | 6.97e7 | 1.80e7 | 7.61e7
CG8925 | DRSC16456 | 3.74e7 | 6.83e7 | 1.87e7 | 7.63e7
CG8925 | DRSC16457 | 3.45e7 | 6.19e7 | 1.87e7 | 7.87e7
BomS6 | DRSC21676 | 4.48e7 | 3.87e7 | 2.42e7 | 1.83e7
Oatp58Db | DRSC04364 | 3.92e7 | 5.14e7 | 1.97e7 | 2.27e7
CG11155 | DRSC17184 | 4.03e7 | 4.45e7 | 2.06e7 | 1.80e7
CG11155 | DRSC17205 | 3.56e7 | 3.92e7 | 1.62e7 | 1.81e7
rho-6 | DRSC02588 | 3.99e7 | 2.50e7 | 1.72e7 | 1.23e7
CG5149 | DRSC02819 | 4.22e7 | – | 1.90e7 | –
ZC3H3 | DRSC10696 | 1.73e7 (active) | 2.41e7 | 1.12e7 | 1.49e7
Pex12 | DRSC00622 | 2.33e7 | 3.12e7 | 1.33e7 | 1.54e7
mbf1 | DRSC11365 | 2.74e7 | 3.62e7 | 1.27e7 | 2.63e7
TwdlG | DRSC12229 | 3.50e7 | 5.63e7 | 1.48e7 | 2.35e7
Np | DRSC06089 | 2.76e7 | 3.10e7 | 1.30e7 | 1.35e7
Np | DRSC07094 | 2.64e7 | 3.05e7 | 1.22e7 | 1.30e7
Np | DRSC22421 | 4.42e7 | 3.76e7 | 2.06e7 | 1.57e7
polybromo | DRSC14307 | 5.26e7 | 4.08e7 | 2.49e7 | 2.00e7
CG33253 | DRSC19547 | 4.61e7 | 4.44e7 | 2.33e7 | 2.17e7
CG33253 | DRSC20053 | 5.28e7 | 2.87e7 | 2.29e7 | 1.49e7
mtrm | DRSC10322 | 4.79e7 | 3.88e7 | 3.00e7 | 1.57e7
mtrm | DRSC23076 | 7.70e7 | 2.14e7 | 3.24e7 | 9.91e6
Argl + CG9515 | DRSC03243 | 6.25e7 | – | 2.68e7 | –
Argl + CG9515 | DRSC03245 | 3.00e7 | 4.24e7 | 1.40e7 | 1.84e7
CG11417 | DRSC18581 | 2.94e7 | 3.58e7 | 1.59e7 | 1.89e7
E(spl)m4-BFM | DRSC16992 | 3.31e7 | 5.52e7 | 1.83e7 | 2.39e7
Esyt2 | DRSC16082 | 5.30e7 | 4.38e7 | 2.42e7 | 1.90e7
Datp | DRSC01102 | 4.16e7 | 4.12e7 | 2.04e7 | 1.93e7
CG34430 | DRSC06499 | 3.74e7 | 3.11e7 | 1.75e7 | 1.54e7
CG11044 | DRSC06026 | 5.81e7 | 5.79e7 | 2.59e7 | 2.68e7
CG14024 | DRSC00868 | 3.60e7 | 3.57e7 | 1.98e7 | 1.66e7
CG14024 | DRSC02354 | 4.44e7 | – | 1.95e7 | –
CG12674 | DRSC00348 | 3.03e7 | 3.32e7 | 1.40e7 | 1.55e7
CG17601 | DRSC20639 | 5.09e7 | 4.84e7 | 2.37e7 | 1.95e7
MSBP | DRSC20146 | 3.58e7 | 3.64e7 | 1.76e7 | 1.67e7
CG15515 | DRSC15054 | 3.96e7 | 6.69e7 | 2.05e7 | 2.84e7
CG14861 | DRSC14984 | 3.42e7 | 5.44e7 | 1.65e7 | 6.30e7
CG44085 | DRSC02922 | 1.99e7 | 1.44e7 | 1.31e7 | 9.74e6
CG44085 | DRSC02929 | 2.91e7 | 1.86e7 | 1.39e7 | 9.52e6
CG44085 | DRSC23040 | 3.15e7 | 4.36e7 | 1.46e7 | 1.84e7
noc | DRSC03580 | 4.94e7 | – | 2.37e7 | –
CG15576 | DRSC18064 | 3.53e7 | 4.15e7 | 1.49e7 | 1.79e7
boss | DRSC16916 | 3.91e7 | 6.79e7 | 2.08e7 | 2.53e7
odd | DRSC00832 | 2.44e7 | 3.85e7 | 1.50e7 | 1.67e7
odd | DRSC23024 | 3.43e7 | 3.73e7 | 1.74e7 | 1.75e7
CG4982 | DRSC10465 | 4.12e7 | 2.90e7 | 1.79e7 | 1.49e7
CG8388 | DRSC07157 | 3.79e7 | 4.87e7 | 1.60e7 | 2.12e7
CG30467 | DRSC07097 | 4.03e7 | 3.67e7 | 2.10e7 | 1.66e7
CG14204 | DRSC19559 | 3.34e7 | 4.43e7 | 2.01e7 | 2.09e7
Ufd4 | DRSC02871 | 3.44e7 | 4.18e7 | 1.86e7 | 1.92e7
ATPsynCF6 | DRSC14092 | 4.52e7 | 4.61e7 | 2.36e7 | 2.17e7
CG42594 | DRSC18053 | 2.30e7 | 3.90e7 | 1.55e7 | 2.18e7
CG42594 | DRSC18408 | 3.50e7 | 4.07e7 | 1.81e7 | 1.97e7
CG42594 | DRSC22978 | 3.38e7 | 3.52e7 | 1.53e7 | 1.37e7
Ufl1 | DRSC12527 | 4.55e7 | 5.58e7 | 2.00e7 | 2.54e7
CG2540 | DRSC19856 | 3.95e7 | 3.94e7 | 1.77e7 | 1.88e7
ato | DRSC16904 | 3.55e7 | 5.03e7 | 1.88e7 | 2.32e7
CG15382 | DRSC00397 | 2.59e7 | 2.65e7 | 1.24e7 | 1.28e7
beat-Ib | DRSC03490 | 4.77e7 | 3.98e7 | 2.06e7 | 1.71e7
CG18596 | DRSC15355 | 4.00e7 | 3.25e7 | 1.90e7 | 1.49e7
Spn28B | DRSC02982 | 3.69e7 | 5.80e7 | 1.95e7 | 2.47e7
CG5217 | DRSC15740 | 3.61e7 | 2.94e7 | 3.87e7 | 1.26e7
Cyp304a1 | DRSC16623 | 1.95e7 | 3.96e7 | 1.05e7 | 5.68e7
drpr | DRSC08143 | 4.15e7 | 4.33e7 | 2.18e7 | 1.88e7
drpr | DRSC08525 | 3.70e7 | 4.10e7 | 1.85e7 | 1.83e7

Quoted from the entries so far for reference:
predicted target | amplicon | calcium entry signal, replicate 1 (fluorescence units) | calcium entry signal, replicate 2 (fluorescence units) | resting calcium signal, replicate 1 (fluorescence units) | resting calcium signal, replicate 2 (fluorescence units)
CG17234 | DRSC00490 | 2.83e7 | 3.13e7 | 1.42e7 | 1.46e7
Snp | DRSC04524 | 5.70e7 | 5.50e7 | 2.70e7 | 2.28e7
Snp | DRSC21538 | 3.42e7 | 3.40e7 | 1.90e7 | 1.53e7
CG14857 | DRSC14981 | 3.33e7 | 4.85e7 | 1.64e7 | 7.11e7
Golgin84 | DRSC15269 | 3.74e7 | 5.50e7 | 1.96e7 | 2.06e7
CG43260 (retired record) | DRSC19313 | 2.93e7 | 4.01e7 | 1.50e7 | 1.84e7
